These are yes or no findings as the source states them, for the method shown. In cells and extracts the contact can be indirect. A yes stands for co-enrichment or nearness to the bait. Other partners may have been found. Each block holds one molecule with its values, some of them ahead of it.
Legend:
[1] = biological target: Flag-FAF1 wild type (human) (UniProt Q9UNN5); test: affinity purification with mass spectrometry; Flag-FAF1 immunoprecipitated with anti-Flag beads from U2OS cells, untreated or MG132 for 2 or 6 hr; untransfected cells as control
[2] = biological target: endogenous VAPB (human cells) (human (endogenous in U2OS, HeLa, SH-SY5Y)) (UniProt O95292); test: affinity purification with mass spectrometry; SILAC; endogenous VAPB immunoprecipitated from mixed light and heavy U2OS lysates, MG132 for 2 or 6 hr against untreated
[3] = biological target: endogenous VAPB (mouse brain) (mouse (endogenous in brain)) (UniProt Q9QY76); test: affinity purification with mass spectrometry; endogenous VAPB immunoprecipitated from mouse brain extracts; uncoupled Protein A-beads as control

Amino acid sequences for entries named in this document (tags omitted). Residues count along the entry.
UniProt Q9UNN5, residues 2-650: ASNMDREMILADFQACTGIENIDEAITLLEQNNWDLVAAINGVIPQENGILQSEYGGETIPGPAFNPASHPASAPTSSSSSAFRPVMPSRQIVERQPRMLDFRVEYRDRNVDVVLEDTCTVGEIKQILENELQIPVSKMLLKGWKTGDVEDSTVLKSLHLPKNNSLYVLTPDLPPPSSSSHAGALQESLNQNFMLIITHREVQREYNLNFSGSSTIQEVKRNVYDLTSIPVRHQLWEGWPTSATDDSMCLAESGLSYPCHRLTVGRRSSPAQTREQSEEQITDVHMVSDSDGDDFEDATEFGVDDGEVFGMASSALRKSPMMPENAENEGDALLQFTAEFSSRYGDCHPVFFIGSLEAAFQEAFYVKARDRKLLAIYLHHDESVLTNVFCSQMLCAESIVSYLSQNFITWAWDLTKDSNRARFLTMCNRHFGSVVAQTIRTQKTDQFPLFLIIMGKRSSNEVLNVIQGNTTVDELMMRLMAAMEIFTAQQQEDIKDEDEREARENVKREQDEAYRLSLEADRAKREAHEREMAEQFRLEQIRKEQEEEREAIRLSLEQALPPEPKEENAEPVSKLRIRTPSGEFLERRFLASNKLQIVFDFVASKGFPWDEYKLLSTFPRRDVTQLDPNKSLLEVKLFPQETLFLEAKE
UniProt O95292: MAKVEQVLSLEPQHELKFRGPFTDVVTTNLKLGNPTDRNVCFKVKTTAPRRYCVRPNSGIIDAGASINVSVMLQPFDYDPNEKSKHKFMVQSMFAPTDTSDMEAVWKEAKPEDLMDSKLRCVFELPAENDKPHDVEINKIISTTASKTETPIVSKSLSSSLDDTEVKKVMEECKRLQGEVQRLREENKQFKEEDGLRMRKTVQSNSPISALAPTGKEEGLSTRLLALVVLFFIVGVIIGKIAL
UniProt Q9QY76: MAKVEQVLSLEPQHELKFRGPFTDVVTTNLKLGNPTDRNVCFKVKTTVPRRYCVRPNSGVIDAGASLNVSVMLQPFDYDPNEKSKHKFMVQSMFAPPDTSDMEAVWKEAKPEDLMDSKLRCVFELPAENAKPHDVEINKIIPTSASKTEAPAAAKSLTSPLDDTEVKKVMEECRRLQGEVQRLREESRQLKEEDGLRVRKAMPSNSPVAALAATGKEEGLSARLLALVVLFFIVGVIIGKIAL
UniProt P46379: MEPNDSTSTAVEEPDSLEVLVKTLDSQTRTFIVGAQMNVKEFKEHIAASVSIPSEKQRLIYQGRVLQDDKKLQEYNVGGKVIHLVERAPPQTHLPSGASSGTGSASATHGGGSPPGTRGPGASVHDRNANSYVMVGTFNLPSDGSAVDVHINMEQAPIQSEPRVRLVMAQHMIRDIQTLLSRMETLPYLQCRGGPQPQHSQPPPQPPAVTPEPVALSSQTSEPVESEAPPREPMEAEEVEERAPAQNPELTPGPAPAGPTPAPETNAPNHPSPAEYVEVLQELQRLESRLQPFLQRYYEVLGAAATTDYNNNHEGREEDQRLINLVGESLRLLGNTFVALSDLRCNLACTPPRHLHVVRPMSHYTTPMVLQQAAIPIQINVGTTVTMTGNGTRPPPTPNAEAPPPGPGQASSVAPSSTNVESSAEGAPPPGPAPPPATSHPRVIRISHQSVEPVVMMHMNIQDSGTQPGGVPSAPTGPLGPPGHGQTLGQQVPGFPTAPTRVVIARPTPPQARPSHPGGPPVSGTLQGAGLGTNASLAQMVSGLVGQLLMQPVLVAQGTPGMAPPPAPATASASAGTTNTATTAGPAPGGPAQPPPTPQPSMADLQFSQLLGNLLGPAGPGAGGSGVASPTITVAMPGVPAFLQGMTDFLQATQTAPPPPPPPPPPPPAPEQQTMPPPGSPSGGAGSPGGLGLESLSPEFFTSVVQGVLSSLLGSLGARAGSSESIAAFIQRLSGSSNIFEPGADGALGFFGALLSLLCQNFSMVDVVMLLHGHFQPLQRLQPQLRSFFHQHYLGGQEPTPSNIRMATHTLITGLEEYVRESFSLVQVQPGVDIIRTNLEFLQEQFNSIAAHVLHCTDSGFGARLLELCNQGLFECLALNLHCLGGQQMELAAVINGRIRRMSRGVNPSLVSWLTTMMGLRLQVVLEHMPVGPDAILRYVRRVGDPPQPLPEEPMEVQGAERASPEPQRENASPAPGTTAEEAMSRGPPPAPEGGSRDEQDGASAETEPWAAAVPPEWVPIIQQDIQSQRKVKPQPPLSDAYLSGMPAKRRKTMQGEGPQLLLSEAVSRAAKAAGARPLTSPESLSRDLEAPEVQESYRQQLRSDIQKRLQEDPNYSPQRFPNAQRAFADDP
UniProt Q7L5D6: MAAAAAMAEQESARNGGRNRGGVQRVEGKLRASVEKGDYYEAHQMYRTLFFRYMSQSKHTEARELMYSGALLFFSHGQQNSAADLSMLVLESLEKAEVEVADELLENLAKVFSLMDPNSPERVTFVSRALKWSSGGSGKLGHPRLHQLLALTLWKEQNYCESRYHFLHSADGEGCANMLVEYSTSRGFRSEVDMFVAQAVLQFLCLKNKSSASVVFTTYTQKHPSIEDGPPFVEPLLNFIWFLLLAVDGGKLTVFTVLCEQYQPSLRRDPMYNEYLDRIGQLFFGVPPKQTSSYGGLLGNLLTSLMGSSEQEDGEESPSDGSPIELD
UniProt P61264: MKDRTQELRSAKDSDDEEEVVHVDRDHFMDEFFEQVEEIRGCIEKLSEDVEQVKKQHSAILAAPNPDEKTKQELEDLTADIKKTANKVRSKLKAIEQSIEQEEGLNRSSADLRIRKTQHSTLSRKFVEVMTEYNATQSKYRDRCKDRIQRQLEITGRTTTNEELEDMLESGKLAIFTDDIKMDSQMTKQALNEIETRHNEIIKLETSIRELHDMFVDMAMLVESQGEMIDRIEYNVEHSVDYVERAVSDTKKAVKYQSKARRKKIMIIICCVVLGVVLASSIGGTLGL

Molecule: endogenous BAG6 (human cells) (from UniProt P46379 1-1132)
- binding [1]: binds

Molecule: endogenous GET4 (human cells) (from UniProt Q7L5D6 1-327)
- binding [1]: binds
- binding [2]: binds

Molecule: endogenous syntaxin 1B (mouse brain) (from UniProt P61264 1-288)
- binding [3]: binds

B2: endogenous WDR44 (mouse brain) (protein, UniProt Q6NVE8 1-915)
chain: MASESDTEEFYDAPEDVHLGTGYPVGSPGKVGLLSFKEAENTANQAGNESPVQELRQDVSKKIIESIIEESQKVLQLEDDSLDSKGKGLSDEATAGPSVAGTEFSNIPGLLAIEHELQQDSEKAESQNVAEESELETQKCFPSDETCEKSEKTVDETDNLTEVSSGEQLDASGLEAETLNKEALEVKEGDVLDPASLDTLSTTDFAAVEEVAPAKPPRHLTPEPDIVASTKKPVPARPPPPTNFPPPRPPPPSRPAPPPRKKKSELEFEALKTPDLDVPKENITSDSLLTTNMASENTVRDSLPSLDLASATSGDKIVTAQENGKAPDVQTVAGEVMGPQRPRSNSGRELTDEEILASVMIKNLDTGEEIPLSLAEEKLPTGINPLTLHIMRRTKEYVSNDATQSDDEEKLQSQQTDTDGGRLKQKTTQLKKFLGKSVKRAKHLAEEYGERAINKVKSVRDEVFHTDQDDPSSSDDEGMPYTRPVKFKAAHGFKGPYDFDQIKVVQDLSGEHMGAVWTMKFSHCGRLLASAGQDNIVRIWALKNAFDYFNNMRMKYNTEGRVSPSPSQESLSSSKSDTDMGVCSGTDEDPDDKNAPFRQRPFCKYKGHTADLLDLSWSKNYFLLSSSMDKTVRLWHISRRECLCCFQHIDFVTAIAFHPRDDRYFLSGSLDGKLRLWNIPDKKVALWNEVDGQTKLITAANFCQNGKYAVIGTYDGRCIFYDTEHLKYHTQIHVRSTRGRNKVGRKITGIEPLPGENKILVTSNDSRIRLYDLRDLSLSMKYKGYVNSSSQIKASFSHDFTYLVSGSEDKYVYIWSTYHDLSKFTSVRRDRNDFWEGIKAHNAVVTSAIFAPNPSLMLSLDVQSEKLEGIDKYEDAEVLDSTSTGIVKTDNTEVLLSADFTGAIKVFINKRKTVS
- binding [3]: binds

B3: endogenous RAB3GAP2 (mouse brain) (protein, UniProt Q8BMG7 1-1366)
chain: MACSIVQFCSFQDLQSARDFLFPHLREETPGALKRDPSKTSSWEDDSWGAWEETEPREPEEEGNTSKTQKNSWLQECVLSLSPTSDLMVIAREQKAAFLVRKWKHGDKGKEEMQFAVGWSGSVSAEEGEYVTSALCIPLASQKRSSTGRPDWTCIVVGFTSGYVRFYTEGVLLLAQLLNEDKVLQLKCRTYEIPRHPGVTEQNEELSILYPAAIVTIDGFSLFQSLRACRNQVAKAAASGNENIQPPPLAYKKWGLQDIDTIIDHASVGIMTLSPFDQMKTASNIGGFNAAIKNSPPAMSQYITVGSSPFTGFFYALEGSTQPLLSHVALAVASKLTSALFSAASGWLGWKSKHEEDTVQKQKPKMEPATPLAVRFGLPDSRRHGESICLSPCNTLAAVTDDFGRVILLDVARGIAIRMWKGYRDAQVGWIQIVEDLHERVPEKGGFSPFGNTQGPSRVAQFLVIYAPRRGILEVWNTQQGPRVGAFNVGKHCRLLYPGYKIMGLNNVTSQSWQPQTYQICLVDPVSASVKAVNVPFHLALSDKKSERAKDLHLVKKLSALLRAKSPRPDSFETEIKELILDIKYPATKKQALESILASDRLSFSCLRNVTQTLMDTLKNQELESVDEGLLQFCASKLKLLHLYESVSQLNTLDFHSDTPFSDNDLAVLLRLDDKELLKLRALLEKYKQENTKATVRFSEDADRVLPVKTFLEYLEYEKDALSIRKIGEEECVALGSFFFWKCLHGKSSTEEMCHSLESAGLSPQQLLSLLLSVWLSKEKDILDKPQSVCCLHTMLSLLSKMKVAIDETWDSQSVSPWWQQMRMACIQSENSGAALLSAHVGHSVAAQMSSGATDKKFSQMELDADAEALTDSWEALSLDTEYWKLLLRQLEDCLILQTLLHSKLSPPAAKAPSLQSEPLPRLSVKKLLEGGKGGIADSVAKWIFKQDLSPELLKCANKERDVENPDEPREDLLHLAYEQFPCSLELDVLHAHCCWEYVVQWNKDPEEARFLVRSIEHLKQILNPHVQNGIALMMWNTFLVKRFSAATYLMDKVGKSPKDRLCRRDVGMSDTALTSFLGSCLELLQTSLEADISRDEVQVPVLDTEDAWLSVEGPISIVELALEQKPIHYPLVEHHSVLCSILYASMRFSLKSVKPLALFDSKGKNAFFKDLTSIQLLPSGEMDPNFISVRQQFLLKVVSAAVQAQHSKDKDPSAEAANTHWKDLNWPGLAVDLAHHLQVSDDVIRRHYVGELYSHGADLLGEEAIFQVQDKEVLASQLLVLTGQRLAHALFHTQTKEGMELLARLPPTLCTWLKAMNPQDLQNTGVPIAATAKLVHKVMELLPEKHGQYSLALHLIDAVEAMATL
- binding [3]: binds

The remaining lines, values ahead:

- binding [1]: binds
Molecule: endogenous VAPB (human cells) (from UniProt O95292 1-243)

- binding [3]: binds
B1: endogenous RAB3GAP1 (mouse brain) (protein, UniProt Q80UJ7 1-981)
chain: MAADSEPESEVFEITDFTTASEWERFISKVEEVLNDWKLIGPSLGKPLEKGIFTSGTWEERSDEISFADFRFSVTHHYLVQESPDKERKDEELEDAIPQSMQDLLCMNNDFPPRAHCLVRWYGLREFVVIAPAAHSDAVLSESKCNLLLSSISIALGNTGCQVPLFVQIHHKWRRMYMGECQGPGVRTDFEMVHLRKVPSQYTHLSGLLDIFKSKIGCPLTPLPPVSIAIRLTYVLQDWQQYFWPQQPPDIDALVGGEVGGLEFGKLPFGACEDPISELHLATTWPHLTEGIIVDNDVYSDLDPVQAPHWSVRVRKADNPQCLLGDFVTEFLKICRRKESTDEILGRSTFEEEGREVADITHALSKLTEPAPVPIHKLSVSNMVHTAKKKIRKHRGEESPLNSDVLNTILLFLFPDAVSEKPLDGTTSIDNSIPAPEAGDYTLYNQFKSAPSDSLTYKLALCLCMINFYHGGLKGVAHLWQEFVLEMRFRWENNFLIPGLASGSPDLRCCLLHQKLQMLNCCIERKKARDEGKKTSLSDSTTSAYPGDAGKTGGQLGLDHLRDTEKEKGEVGKSWDSWSDSEEEFFECLSDTEDLKGNGQESGKKGGPKEMANLKPEGRLHQHGKLTLLHNGEPLYIPVTQEPAPMTEDLLEEQSEVLAKLGTSAEGAHLRARMQSACLLSDMESFKAANPGCFLEDFVRWYSPRDYIEEEVTDEKGNVVLKGELSARMKIPSNMWVEAWETAKPVPARRQRRLFDDTREAEKVLHYLAMQKPADLARHLLPCVIHAAVLKVKEEESLENIPSVKKIIKQIIAHSSKVLHFPNPEDKKLEEIILQITTVEAIIARARSLKAKFGTEKCEHEEEKEGLERFVSCLLEQPEVSVTGAGRGHAGRIIHKLFVNAQRAAAVALPEEELKKSGCPEERRQTLVSDFPPPAGRELILRATVPRPAPYSKALPQRMYSVLTKEDFRLAGAFSSDTSFF
